Source: the supplement of paper PMC11006884
The list shows a part of the results, in another mix than the full data.

By UniProt entry, the sequences of proteins in these tests, tags left out. Where a name states a change or a piece, a line headed by the entry shows the natural chain unless it says otherwise.
UniProt Q52LJ0: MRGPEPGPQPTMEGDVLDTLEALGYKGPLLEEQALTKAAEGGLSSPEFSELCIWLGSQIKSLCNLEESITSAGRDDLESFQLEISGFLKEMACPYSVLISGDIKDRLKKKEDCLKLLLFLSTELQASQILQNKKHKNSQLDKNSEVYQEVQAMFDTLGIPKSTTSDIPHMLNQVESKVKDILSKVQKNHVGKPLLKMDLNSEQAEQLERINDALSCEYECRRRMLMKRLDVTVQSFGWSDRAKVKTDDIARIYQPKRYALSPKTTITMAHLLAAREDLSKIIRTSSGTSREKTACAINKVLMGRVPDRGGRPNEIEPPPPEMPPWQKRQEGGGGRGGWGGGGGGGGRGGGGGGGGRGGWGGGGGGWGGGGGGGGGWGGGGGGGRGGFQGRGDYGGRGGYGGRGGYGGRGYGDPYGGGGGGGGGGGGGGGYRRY
UniProt Q15276: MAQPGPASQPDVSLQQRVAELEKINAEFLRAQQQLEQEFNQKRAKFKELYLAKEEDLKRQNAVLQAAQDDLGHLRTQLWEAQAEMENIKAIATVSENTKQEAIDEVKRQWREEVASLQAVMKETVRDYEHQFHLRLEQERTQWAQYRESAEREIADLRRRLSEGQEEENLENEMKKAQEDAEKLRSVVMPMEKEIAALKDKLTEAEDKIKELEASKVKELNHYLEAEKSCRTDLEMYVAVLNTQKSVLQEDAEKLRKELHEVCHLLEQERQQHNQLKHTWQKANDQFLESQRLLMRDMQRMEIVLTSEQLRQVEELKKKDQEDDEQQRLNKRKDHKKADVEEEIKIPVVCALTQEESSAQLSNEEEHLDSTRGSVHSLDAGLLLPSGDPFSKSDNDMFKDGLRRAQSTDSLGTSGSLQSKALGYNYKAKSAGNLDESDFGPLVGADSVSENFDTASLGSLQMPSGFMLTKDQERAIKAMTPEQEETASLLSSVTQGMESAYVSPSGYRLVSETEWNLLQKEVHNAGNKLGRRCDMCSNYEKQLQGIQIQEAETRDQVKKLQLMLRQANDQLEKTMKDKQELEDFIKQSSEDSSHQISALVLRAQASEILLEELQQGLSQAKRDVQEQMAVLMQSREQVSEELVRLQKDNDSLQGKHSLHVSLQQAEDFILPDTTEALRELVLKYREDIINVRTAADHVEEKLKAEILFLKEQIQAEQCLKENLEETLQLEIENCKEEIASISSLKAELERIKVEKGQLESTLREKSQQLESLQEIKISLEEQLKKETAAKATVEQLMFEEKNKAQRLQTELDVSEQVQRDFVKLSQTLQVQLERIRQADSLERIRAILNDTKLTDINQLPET
UniProt Q15366, whole entry, looked up: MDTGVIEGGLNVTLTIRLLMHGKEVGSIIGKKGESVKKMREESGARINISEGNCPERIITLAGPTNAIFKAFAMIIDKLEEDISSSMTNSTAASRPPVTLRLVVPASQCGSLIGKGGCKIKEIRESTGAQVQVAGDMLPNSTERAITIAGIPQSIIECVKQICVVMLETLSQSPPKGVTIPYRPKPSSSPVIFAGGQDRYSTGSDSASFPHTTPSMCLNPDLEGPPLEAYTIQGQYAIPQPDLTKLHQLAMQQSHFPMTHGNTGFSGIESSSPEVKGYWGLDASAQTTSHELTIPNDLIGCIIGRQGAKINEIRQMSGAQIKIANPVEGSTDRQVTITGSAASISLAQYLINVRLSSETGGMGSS
UniProt Q15723: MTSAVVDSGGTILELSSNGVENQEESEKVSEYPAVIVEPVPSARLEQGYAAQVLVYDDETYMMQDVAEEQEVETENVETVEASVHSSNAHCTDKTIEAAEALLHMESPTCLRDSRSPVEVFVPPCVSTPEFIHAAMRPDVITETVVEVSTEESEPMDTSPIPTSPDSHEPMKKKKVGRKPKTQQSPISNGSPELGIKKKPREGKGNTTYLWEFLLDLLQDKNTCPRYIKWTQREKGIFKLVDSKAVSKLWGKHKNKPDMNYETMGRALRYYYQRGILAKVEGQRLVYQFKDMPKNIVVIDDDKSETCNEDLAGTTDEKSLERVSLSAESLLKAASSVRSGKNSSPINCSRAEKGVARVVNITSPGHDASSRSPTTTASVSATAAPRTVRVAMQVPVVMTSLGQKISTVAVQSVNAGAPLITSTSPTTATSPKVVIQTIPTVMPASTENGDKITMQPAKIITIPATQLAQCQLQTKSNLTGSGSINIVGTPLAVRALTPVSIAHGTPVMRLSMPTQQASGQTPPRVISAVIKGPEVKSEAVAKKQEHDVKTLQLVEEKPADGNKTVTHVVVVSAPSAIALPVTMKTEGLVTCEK
UniProt Q15631: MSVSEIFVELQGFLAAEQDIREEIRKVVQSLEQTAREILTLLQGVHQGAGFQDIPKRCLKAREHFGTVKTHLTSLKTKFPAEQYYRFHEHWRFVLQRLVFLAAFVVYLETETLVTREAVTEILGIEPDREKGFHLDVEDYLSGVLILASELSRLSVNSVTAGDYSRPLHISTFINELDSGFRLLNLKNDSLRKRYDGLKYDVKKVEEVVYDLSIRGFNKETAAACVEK
UniProt Q15393: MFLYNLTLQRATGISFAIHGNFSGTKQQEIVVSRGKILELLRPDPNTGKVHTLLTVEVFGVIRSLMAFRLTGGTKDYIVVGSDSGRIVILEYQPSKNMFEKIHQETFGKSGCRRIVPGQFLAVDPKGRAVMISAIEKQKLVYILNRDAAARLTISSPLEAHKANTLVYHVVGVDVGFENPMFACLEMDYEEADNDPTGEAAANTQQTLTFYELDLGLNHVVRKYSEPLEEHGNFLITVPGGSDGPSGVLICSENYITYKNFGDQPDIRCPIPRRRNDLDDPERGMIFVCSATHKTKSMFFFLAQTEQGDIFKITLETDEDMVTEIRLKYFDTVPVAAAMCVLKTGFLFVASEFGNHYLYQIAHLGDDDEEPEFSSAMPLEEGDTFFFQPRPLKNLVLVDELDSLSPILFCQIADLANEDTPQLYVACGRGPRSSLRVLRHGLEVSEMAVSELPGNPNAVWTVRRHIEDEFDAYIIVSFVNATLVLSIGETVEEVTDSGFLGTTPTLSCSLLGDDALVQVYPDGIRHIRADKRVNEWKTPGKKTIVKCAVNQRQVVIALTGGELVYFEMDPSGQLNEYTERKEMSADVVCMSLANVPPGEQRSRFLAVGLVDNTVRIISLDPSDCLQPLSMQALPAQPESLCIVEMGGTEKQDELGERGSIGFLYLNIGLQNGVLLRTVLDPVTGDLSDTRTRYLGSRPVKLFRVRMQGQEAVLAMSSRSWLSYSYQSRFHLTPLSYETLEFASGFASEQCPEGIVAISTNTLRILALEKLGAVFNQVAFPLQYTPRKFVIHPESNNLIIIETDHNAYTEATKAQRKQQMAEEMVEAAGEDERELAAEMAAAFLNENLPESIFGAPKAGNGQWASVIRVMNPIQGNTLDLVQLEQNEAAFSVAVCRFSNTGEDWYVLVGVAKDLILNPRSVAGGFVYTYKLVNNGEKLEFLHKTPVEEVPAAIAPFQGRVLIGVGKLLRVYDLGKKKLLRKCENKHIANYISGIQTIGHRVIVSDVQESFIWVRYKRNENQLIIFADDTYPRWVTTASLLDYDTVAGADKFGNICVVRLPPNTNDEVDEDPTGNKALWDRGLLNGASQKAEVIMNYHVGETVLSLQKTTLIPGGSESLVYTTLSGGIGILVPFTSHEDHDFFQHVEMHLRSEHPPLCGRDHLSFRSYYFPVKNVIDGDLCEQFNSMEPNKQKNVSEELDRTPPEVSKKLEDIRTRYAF
UniProt Q16625: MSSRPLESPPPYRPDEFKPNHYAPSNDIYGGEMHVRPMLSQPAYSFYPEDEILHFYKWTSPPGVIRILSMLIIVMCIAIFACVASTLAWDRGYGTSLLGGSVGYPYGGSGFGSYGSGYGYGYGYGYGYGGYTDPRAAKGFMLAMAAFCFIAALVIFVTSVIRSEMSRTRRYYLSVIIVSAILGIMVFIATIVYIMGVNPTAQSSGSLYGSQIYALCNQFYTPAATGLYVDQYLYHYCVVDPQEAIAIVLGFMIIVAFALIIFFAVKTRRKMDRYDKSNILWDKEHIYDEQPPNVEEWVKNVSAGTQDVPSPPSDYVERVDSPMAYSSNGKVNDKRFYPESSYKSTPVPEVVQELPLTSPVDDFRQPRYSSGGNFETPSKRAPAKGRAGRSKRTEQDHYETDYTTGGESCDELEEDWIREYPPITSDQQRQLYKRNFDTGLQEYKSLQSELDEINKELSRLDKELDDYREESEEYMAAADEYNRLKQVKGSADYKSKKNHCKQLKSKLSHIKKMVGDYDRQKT
UniProt Q15181: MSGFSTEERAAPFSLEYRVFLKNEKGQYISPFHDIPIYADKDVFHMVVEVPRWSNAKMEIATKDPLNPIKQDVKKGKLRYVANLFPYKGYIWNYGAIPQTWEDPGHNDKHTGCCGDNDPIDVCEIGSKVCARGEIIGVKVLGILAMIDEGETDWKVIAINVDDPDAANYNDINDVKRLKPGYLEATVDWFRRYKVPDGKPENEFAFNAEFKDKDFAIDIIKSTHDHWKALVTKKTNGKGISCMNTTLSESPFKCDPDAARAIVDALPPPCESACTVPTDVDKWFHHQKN
UniProt Q29RF7: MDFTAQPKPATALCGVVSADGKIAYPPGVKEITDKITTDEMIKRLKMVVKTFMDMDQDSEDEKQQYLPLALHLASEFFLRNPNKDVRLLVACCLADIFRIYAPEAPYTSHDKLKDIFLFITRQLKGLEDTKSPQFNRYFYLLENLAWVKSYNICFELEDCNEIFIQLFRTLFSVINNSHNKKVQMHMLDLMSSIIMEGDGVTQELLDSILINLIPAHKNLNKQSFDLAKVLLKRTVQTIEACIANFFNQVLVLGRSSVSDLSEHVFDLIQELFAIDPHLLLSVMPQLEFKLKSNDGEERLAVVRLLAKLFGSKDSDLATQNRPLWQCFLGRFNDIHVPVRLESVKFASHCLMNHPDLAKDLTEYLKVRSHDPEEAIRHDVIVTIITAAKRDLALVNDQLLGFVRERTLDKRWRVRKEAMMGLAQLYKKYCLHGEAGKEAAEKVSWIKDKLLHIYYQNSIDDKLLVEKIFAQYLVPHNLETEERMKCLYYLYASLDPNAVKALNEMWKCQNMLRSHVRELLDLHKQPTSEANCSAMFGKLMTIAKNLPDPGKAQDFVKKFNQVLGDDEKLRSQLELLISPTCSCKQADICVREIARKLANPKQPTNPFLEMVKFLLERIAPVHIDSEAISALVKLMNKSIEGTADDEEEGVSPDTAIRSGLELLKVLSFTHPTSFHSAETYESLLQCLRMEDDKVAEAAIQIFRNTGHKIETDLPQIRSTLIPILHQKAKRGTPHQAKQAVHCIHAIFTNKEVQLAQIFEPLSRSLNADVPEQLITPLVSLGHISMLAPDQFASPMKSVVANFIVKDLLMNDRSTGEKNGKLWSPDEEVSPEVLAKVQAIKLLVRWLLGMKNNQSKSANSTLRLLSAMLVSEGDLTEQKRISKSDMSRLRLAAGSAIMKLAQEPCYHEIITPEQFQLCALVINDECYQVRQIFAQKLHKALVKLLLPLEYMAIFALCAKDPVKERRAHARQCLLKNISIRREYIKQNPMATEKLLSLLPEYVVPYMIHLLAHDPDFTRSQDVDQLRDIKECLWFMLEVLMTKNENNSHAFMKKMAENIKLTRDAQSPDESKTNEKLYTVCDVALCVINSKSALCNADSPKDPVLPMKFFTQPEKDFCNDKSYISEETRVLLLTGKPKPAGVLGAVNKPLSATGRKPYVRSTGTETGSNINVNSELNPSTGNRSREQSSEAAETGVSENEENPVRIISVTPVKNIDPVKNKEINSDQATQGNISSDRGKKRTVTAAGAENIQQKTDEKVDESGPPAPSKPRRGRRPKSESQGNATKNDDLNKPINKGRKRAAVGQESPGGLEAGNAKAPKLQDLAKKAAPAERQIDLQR
UniProt Q16134: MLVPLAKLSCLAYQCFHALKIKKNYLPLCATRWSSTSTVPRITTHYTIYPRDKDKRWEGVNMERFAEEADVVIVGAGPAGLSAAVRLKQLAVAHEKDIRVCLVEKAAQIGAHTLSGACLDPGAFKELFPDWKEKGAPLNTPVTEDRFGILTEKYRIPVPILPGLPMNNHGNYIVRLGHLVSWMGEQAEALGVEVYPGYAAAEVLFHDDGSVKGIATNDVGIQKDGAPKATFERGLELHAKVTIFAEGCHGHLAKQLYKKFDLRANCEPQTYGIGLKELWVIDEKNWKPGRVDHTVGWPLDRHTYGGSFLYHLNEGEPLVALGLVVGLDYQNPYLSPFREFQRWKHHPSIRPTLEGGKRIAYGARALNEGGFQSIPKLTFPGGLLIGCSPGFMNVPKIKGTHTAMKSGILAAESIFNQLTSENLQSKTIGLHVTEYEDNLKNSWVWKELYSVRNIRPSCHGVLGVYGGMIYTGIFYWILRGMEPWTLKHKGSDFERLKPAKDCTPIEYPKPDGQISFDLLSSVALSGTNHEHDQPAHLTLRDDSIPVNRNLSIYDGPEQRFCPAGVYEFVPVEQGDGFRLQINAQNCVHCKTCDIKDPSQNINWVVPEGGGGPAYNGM

Compound: COC(=O)C#Cc1ccccc1 [methyl 3-phenylpropiolate]
Assay: log2 ratio of iodoacetamide-alkyne labeling of the cysteine site, DMSO over compound (competition); higher = stronger covalent engagement of the cysteine by the compound, active = 1 or more
Conditions: 500 µM; treatment time 1 h; system: HEK293T cell lysate
Method in brief: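 For each cysteine, the log2 competition ratio is mean control-channel reporter intensity over mean compound-channel reporter intensity. HEK293T lysate (2 mg/mL) was exposed to vehicle or electrophile (500 µM, 1 h, ambient temperature), labelled with iodoacetamide alkyne (1 h), clicked to sCIP-TMT reagents, digested overnight with trypsin at 37 °C, streptavidin-enriched and analysed by Orbitrap Eclipse LC-MS/MS with FAIMS and FragPipe. Cysteines quantified in only one of three replicates, each with duplicate channels, were excluded.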

log2 ratio of iodoacetamide-alkyne labeling, inactive:
CSRP2 C58 (UniProt Q16527) 0.175, FAM98B C295 (UniProt Q52LJ0) 0.995, RABEP1 C533 (UniProt Q15276) 0.143, UniProt Q16512_C602 0.0536, PCBP2 C109 (UniProt Q15366) 0.537, ELF2 C470 (UniProt Q15723) 0.626, PDCD4 C150 (UniProt Q53EL6) 0.564, UniProt Q2M389_C936 0.504, RBBP7 C166 (UniProt Q16576) 0.269, UniProt Q15631_C225 0.308, TBC1D10B C590 (UniProt Q4KMP7) 0.304, TAF12 C143 (UniProt Q16514) 0.37, UniProt Q3LXA3_C13 0.218, TRIP13 C14 (UniProt Q15645) 0.337, SF3B3 C1156 (UniProt Q15393) 0.0723, SF3B3 C1054 (UniProt Q15393) 0.292, UniProt Q16625_C409 -0.0726, CDC37 C336 (UniProt Q16543) 0.0656, PPA1 C270 (UniProt Q15181) 0.153, PDS5A C532 (UniProt Q29RF7) 0.537, TBCE C371 (UniProt Q15813) 0.185, ETFDH C561 (UniProt Q16134) 0.595
